Values quoted from earlier work as cited in US20230087439A1, “Nmr-Metabolite-Signature For Identifying Cancer Patients Resistant To Cdk4/6 Inhibitors, Endocrine Therapy and Anti-HER2 Therapy” (Olaris, inc., priority 2018, published 2023).
At least one structure is not confirmed: it was looked up by name or label, or the drawing left a doubt.

System: ER+ breast cancer
Details: of 36 ER+ patients, monotherapy, phase 1; cited from earlier work

For `CCN1CCN(Cc2ccc(Nc3ncc(F)c(-c4cc(F)c5nc(C)n(C(C)C)c5c4)n3)nc2)CC1` [abemaciclib], the “ER+ patients who experienced clinical benefit” value is given as 11.
